Measured values taken from paper PMC10774338.
Numbering of substitutions follows the chain as printed. In names and notes the source's numbering stands. No constants are given. Whether binding was seen depends on the method and setting. Binding seen in cells or lysates may run through a third protein. Some binding calls cover weakened binding; strength is not graded here. Sequences can lack the tags named with a protein.

Target: T1, HA-tagged NH2-terminal fragment of WDR44 containing the RBD (1-408 AA) (human) (UniProt Q5JSH3)
T1 sequence: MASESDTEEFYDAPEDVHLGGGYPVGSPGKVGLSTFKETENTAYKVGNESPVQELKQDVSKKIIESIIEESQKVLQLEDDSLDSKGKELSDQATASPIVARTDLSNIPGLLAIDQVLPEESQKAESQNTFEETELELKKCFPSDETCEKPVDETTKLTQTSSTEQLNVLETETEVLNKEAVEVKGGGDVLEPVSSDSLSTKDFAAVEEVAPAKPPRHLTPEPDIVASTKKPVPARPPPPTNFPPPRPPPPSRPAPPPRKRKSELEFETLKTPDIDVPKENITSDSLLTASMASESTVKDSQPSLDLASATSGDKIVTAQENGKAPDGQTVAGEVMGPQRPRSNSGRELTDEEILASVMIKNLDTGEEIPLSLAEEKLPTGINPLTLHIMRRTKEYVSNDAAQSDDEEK
Experiment: co-IP; HA-NH2-terminal fragment (1-408) and GST-COOH-terminal fragment (477-913) wild-type or variants coexpressed in 293T for 48 h; HA immunoprecipitation (150 mM NaCl, 20 mM Tris HCl pH 8.0, 10% glycerol, 1% Triton X-100; Protein G Sepharose), blots for GST and HA

B1: GST-tagged COOH-terminal WDR domain of WDR44 (477-913 AA), wild-type (domain or fragment, UniProt Q5JSH3-1 477-913)
chain: MPYTRPVKFKAAHGFKGPYDFDQIKVVQDLSGEHMGAVWTMKFSHCGRLLASAGQDNVVRIWALKNAFDYFNNMRMKYNTEGRVSPSPSQESLSSSKSDTDTGVCSGTDEDPDDKNAPFRQRPFCKYKGHTADLLDLSWSKNYFLLSSSMDKTVRLWHISRRECLCCFQHIDFVTAIAFHPRDDRYFLSGSLDGKLRLWNIPDKKVALWNEVDGQTKLITAANFCQNGKYAVIGTYDGRCIFYDTEHLKYHTQIHVRSTRGRNKVGRKITGIEPLPGENKILVTSNDSRIRLYDLRDLSLSMKYKGYVNSSSQIKASFSHDFTYLVSGSEDKYVYIWSTYHDLSKFTSVRRDRNDFWEGIKAHNAVVTSAIFAPNPSLMLSLDVQSEKSEGNEKSEDAEVLDATPSGIMKTDNTEVLLSADFTGAIKVFVNKRKNVS
binding: binds

B2: GST-tagged COOH-terminal WDR domain of WDR44 (477-913 AA) N840S (domain or fragment, UniProt Q5JSH3-1 477-913)
chain: B1 chain with N364S
binding: binds
